PubChem BioAssay AID493246, Drosophila RNAi Screening Center – 2011
Test: 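Genome-wide search for dsRNAs that reduce cell number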 (primary screen). Cell system: Drosophila Kc and S2R+ cells. Reagents: long dsRNA against Drosophila genes. Measured: 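Raw, unnormalised count of remaining cells in each well; per-plate z-scores of cell number underlie the calls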. Reading the numbers: Kc cell number and S2R+ cell number: higher = more cells remaining. Rule for the call: 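Counted as a hit if cell number falls by a z-score of at least 3 within its plate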.
The screen tested about 21,000 reagents; this is an unselected part of those that have a named target and a result. Of all reagents, 429 (2%) were called active. 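Values are raw and not normalised between plates; calls rest on per-plate z-scores that were not deposited.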 Unmarked entries are inactive. Names joined by + are all predicted targets of the reagent. No sequences are given here. Not stated in the record: the amount of reagent, the time to read-out.

| predicted target | DRSC id | Kc cell number, rep 1 | Kc cell number, rep 2 | S2R+ cell number, rep 1 | S2R+ cell number, rep 2 |
| --- | --- | --- | --- | --- | --- |
| CNT1 + CG13742 | DRSC06413 | 1.51e6 | 1.53e6 | 1.31e6 | 1.35e6 |
| CG9368 | DRSC11067 | 1.42e6 | 1.41e6 | 1.19e6 | 1.24e6 |
| CG34300 | DRSC13977 | 1.42e6 | 1.62e6 | 1.16e6 | 1.40e6 |
| CG9008 | DRSC01889 | 1.27e6 | 1.31e6 | 1.10e6 | 1.04e6 |
| CG42374 + Mettl5 | DRSC11085 | 1.60e6 | 1.58e6 | 1.40e6 | 1.47e6 |
| sff | DRSC10590 | 1.45e6 | 1.49e6 | 1.24e6 | 1.31e6 |
| CG15225 | DRSC04232 | 1.80e6 | 1.87e6 | 1.22e6 | 2.78e5 |
| sNPF-R | DRSC10836 | 1.51e6 | 1.63e6 | 1.36e6 | 1.37e6 |
| spt4 | DRSC07696 | 1.72e6 | 1.70e6 | 1.02e6 | 1.13e6 |
| Ets98B | DRSC16666 | 1.54e6 | 1.47e6 | 1.02e6 | 1.13e6 |
| CG2269 | DRSC06833 | 1.47e6 | 1.53e6 | 1.21e6 | 1.27e6 |
| eIF4E4 | DRSC09701 | 1.83e6 | 1.74e6 | 1.15e6 | 1.20e6 |
| Fum3 | DRSC10592 | 1.26e6 | 1.29e6 | 1.26e6 | 1.30e6 |
| CG15035 | DRSC17967 | 1.52e6 | 1.58e6 | 1.07e6 | 1.24e6 |
| Lnpk | DRSC07254 | 1.48e6 | 1.64e6 | 9.37e5 | 1.02e6 |
| HGTX | DRSC09319 | 1.49e6 | 1.65e6 | 1.15e6 | 1.42e6 |
| HGTX | DRSC11181 | 1.32e6 | 1.42e6 | 1.28e6 | 1.32e6 |
| Dyb | DRSC07208 | 1.50e6 | 1.78e6 | 1.06e6 | 1.22e6 |
| CG14327 | DRSC14806 | 1.50e6 | 1.30e6 | 1.05e6 | 1.13e6 |
| GstE3 | DRSC06673 | 1.59e6 | 1.59e6 | 1.11e6 | 1.27e6 |
| Snx16 | DRSC06984 | 1.63e6 | 1.62e6 | 1.26e6 | 1.34e6 |
| por | DRSC20362 | 1.61e6 | 1.64e6 | 1.18e6 | 1.30e6 |
| CG17030 | DRSC08503 | 1.49e6 | 1.44e6 | 1.14e6 | 1.21e6 |
| CD98hc | DRSC15453 | 1.52e6 | 1.57e6 | 1.27e6 | 1.34e6 |
| Sc2 | DRSC08162 | 1.36e6 | 1.46e6 | 1.13e6 | 1.15e6 |
| Sprn | DRSC10132 | 1.22e6 | 1.34e6 | 1.25e6 | 1.46e6 |
| CG30447 | DRSC05820 | 5.44e5 | – | 7.77e5 | – |
| CG6567 | DRSC16066 | 1.43e6 | 1.50e6 | 1.33e6 | 1.37e6 |
| CNMaR | DRSC08992 | 1.29e6 | 1.33e6 | 1.13e6 | 1.30e6 |
| CNMaR | DRSC10224 | 1.37e6 | 1.34e6 | 1.39e6 | 1.44e6 |
| ATPsynCF6L | DRSC08232 | 1.35e6 | 1.28e6 | 1.15e6 | 1.20e6 |
| CG10116 | DRSC09700 | 1.59e6 | 1.70e6 | 1.17e6 | 1.27e6 |

5 neighbouring reagents already listed, for reference:
| predicted target | DRSC id | Kc cell number, rep 1 | Kc cell number, rep 2 | S2R+ cell number, rep 1 | S2R+ cell number, rep 2 |
| --- | --- | --- | --- | --- | --- |
| CG42374 + Mettl5 | DRSC11085 | 1.60e6 | 1.58e6 | 1.40e6 | 1.47e6 |
| sff | DRSC10590 | 1.45e6 | 1.49e6 | 1.24e6 | 1.31e6 |
| CG15225 | DRSC04232 | 1.80e6 | 1.87e6 | 1.22e6 | 2.78e5 |
| sNPF-R | DRSC10836 | 1.51e6 | 1.63e6 | 1.36e6 | 1.37e6 |
| spt4 | DRSC07696 | 1.72e6 | 1.70e6 | 1.02e6 | 1.13e6 |

Additional records:
| predicted target | DRSC id | Kc cell number, rep 1 | Kc cell number, rep 2 | S2R+ cell number, rep 1 | S2R+ cell number, rep 2 |
| --- | --- | --- | --- | --- | --- |
| CG9757 | DRSC16557 | 1.19e6 | 1.22e6 | 1.20e6 | 1.36e6 |
| Sodh2 | DRSC16865 | 1.69e6 | 1.89e6 | 1.33e6 | 1.40e6 |
| mRpS18C | DRSC16538 | 1.41e6 | 1.42e6 | 9.89e5 | 1.02e6 |
| E(spl)mdelta-HLH | DRSC16698 | 1.56e6 | 1.71e6 | 1.02e6 | 1.10e6 |
| stum | DRSC04268 | 1.51e6 | 1.63e6 | 1.35e6 | 3.17e5 |
| stum | DRSC04270 | 1.58e6 | 1.73e6 | 1.42e6 | 3.91e5 |
| CG15576 | DRSC18064 | 1.56e6 | 1.52e6 | 1.08e6 | 1.16e6 |
| CG7194 | DRSC10784 | 1.53e6 | 1.37e6 | 1.18e6 | 1.24e6 |
| CG42365 | DRSC04266 | 1.45e6 | 1.56e6 | 1.27e6 | 3.28e5 |
| Bili | DRSC14405 | 1.55e6 | 1.58e6 | 1.20e6 | 1.22e6 |
| CG7432 | DRSC16243 | 1.45e6 | 1.44e6 | 1.18e6 | 1.26e6 |
| Top3beta | DRSC18724 | 5.88e5 | – | 8.21e5 | – |
| Sirt7 | DRSC14294 | 5.81e5 | – | 8.44e5 | – |
| Mlf | DRSC07472 | 1.67e6 | 1.67e6 | 8.86e5 | 9.65e5 |
| GstE12 | DRSC04047 | 1.53e6 | 1.69e6 | 1.24e6 | 1.29e6 |
| CG10252 | DRSC14221 | 1.55e6 | 1.56e6 | 1.21e6 | 1.33e6 |
| CG12105 | DRSC08255 | 1.40e6 | 1.46e6 | 1.25e6 | 1.20e6 |
| CG34247 | DRSC09933 | 1.29e6 | 1.39e6 | 1.32e6 | 1.41e6 |
| Klf15 | DRSC17742 | 1.56e6 | 1.55e6 | 1.09e6 | 1.16e6 |
| CG5171 | DRSC02823 | 1.49e6 | 1.47e6 | 5.19e5 | 6.21e5 |
| CG31997 | DRSC17105 | 1.39e6 | 1.62e6 | 1.03e6 | 1.12e6 |
| CG3713 | DRSC18648 | 1.57e6 | 1.53e6 | 1.04e6 | 1.13e6 |
| ldd | DRSC20558 | 1.66e6 | 1.68e6 | 1.13e6 | 1.33e6 |
| CG32650 | DRSC19899 | 5.50e5 | – | 9.24e5 | – |
| eIF3k | DRSC04056 | 1.09e6 | 1.08e6 | 9.73e5 | 8.83e5 |
| ms(2)35Ci | DRSC01460 | 1.51e6 | 1.64e6 | 9.27e5 | 1.17e6 |
| CG8768 | DRSC07259 | 1.30e6 | 1.48e6 | 1.08e6 | 1.20e6 |
